Results taken from PubChem BioAssay AID540275 (National Center for Advancing Translational Sciences (NCATS), 2011).
In all, about 320,000 compounds went through this assay and about 620 (0.19%) were called active. This list was built around the results that the source calls inconclusive (neither active nor inactive); the mix of calls is not that of the screen. Rule as the data show it: active = activation above about 80%; inconclusive = between about 30% and that limit; inactive = weaker than that.

Sequences of proteins named here, by UniProt entry; tags and fusion partners are left off.
UniProt Q8NER1, whole entry, looked up: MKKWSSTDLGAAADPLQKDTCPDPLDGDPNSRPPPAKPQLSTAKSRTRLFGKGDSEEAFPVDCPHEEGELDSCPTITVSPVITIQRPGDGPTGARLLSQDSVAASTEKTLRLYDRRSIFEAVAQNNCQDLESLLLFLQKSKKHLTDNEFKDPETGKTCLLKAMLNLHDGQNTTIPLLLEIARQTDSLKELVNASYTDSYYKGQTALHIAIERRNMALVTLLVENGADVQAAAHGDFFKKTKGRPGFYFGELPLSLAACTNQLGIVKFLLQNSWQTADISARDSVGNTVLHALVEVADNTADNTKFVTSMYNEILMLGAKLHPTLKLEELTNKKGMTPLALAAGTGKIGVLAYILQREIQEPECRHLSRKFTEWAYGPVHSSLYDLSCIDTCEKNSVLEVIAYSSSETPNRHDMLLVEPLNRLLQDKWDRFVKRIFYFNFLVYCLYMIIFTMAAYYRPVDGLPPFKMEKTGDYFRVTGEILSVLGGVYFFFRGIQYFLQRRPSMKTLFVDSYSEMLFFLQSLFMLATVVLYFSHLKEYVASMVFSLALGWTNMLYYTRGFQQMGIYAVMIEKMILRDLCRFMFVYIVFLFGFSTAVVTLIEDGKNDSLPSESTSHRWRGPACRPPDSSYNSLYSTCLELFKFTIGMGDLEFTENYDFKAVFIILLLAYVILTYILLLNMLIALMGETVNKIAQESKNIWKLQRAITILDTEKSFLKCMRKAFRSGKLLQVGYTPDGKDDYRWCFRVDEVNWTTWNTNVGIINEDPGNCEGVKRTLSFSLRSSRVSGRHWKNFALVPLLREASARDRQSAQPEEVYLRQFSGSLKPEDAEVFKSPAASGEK

molecular target: Transient receptor potential cation channel subfamily V member 1 (Homo sapiens) (UniProt Q8NER1); assay: HTS Assay for Compounds that Act as Agonists of the Vanilloid Receptor 1; conditions: TRPV1-expressing cells, Fluo-8 calcium influx, agonist mode; at 8.33 µM, hits give high values; as to activation: 0% is about no effect
Summary of the method: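 TRPV1-expressing cells were cultured overnight at 35.5C and loaded with Fluo-8 calcium dye for 40 to 90 min at room temperature. After a 10 s baseline, compound was added and calcium influx was read kinetically for 3 min (ex 480/em 520 nm).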

Compound | activation
O=C(/C=C/c1ccc(F)cc1)c1ccc(N2CCOCC2)cc1 | inconclusive: 48.8%
O=C1C=C(c2cccc3c2Oc2ccccc2S3)C[C@@H](c2ccc(Cl)cc2)C1 | inconclusive: 43.1%
Cc1cc(C(=O)COc2ccccc2Cl)c(C)n1C1CC1 | inactive: 26.9%
O=C(Nc1ccc(F)cc1)c1ccccc1 | inconclusive: 47.1%
O=C(CCC1COc2ccccc2O1)Nc1cccnc1 (stereo not given) | inconclusive: 62%
Cc1nc(C)c(C(=O)NCCC(c2ccccc2)c2ccccc2)o1 | inconclusive: 48%
O=C(Cc1ccccc1)NC(=S)Nc1cccc(C(F)(F)F)c1 | inconclusive: 71.6%
Cc1ccc(CNC(=O)COC(=O)c2nc(-c3ccccc3)oc2C)cc1 | inactive: -3.37%
CCCC(=O)Nc1cc(-c2nnc(OC)c3ccccc23)ccc1N1CCCCC1 | inconclusive: 47.4%
N#CC(C#N)=C1C=C2C=C(N3CCOCC3)CCC2CC1 (stereo not given) | active: 140%
CCN(CC)S(=O)(=O)c1cc(C(=O)Nc2ccncc2)ccc1Cl | inconclusive: 47.1%
Cc1ccc(C)c(S(=O)(=O)Nc2nc3ccc(S(N)(=O)=O)cc3s2)c1 | inactive: 0.844%
O=C(Cc1ccccc1F)NC1CCCN(Cc2ccc(Cl)cc2)C1 (stereo not given) | inconclusive: 54%
Cc1nc(-c2cccc(NC(=O)Cc3ccccc3)c2)cs1 | inconclusive: 72.1%
S=c1[nH]nc(COc2ccccc2)n1/N=C/c1ccc(Cl)c(Cl)c1 | inconclusive: 30.9%
COC(=O)[C@]1(Cc2ccccc2)N[C@H](c2ccc(-c3cccc(Cl)c3)cc2)[C@@H]2C(=O)N(C)C(=O)[C@@H]21 | inactive: 0.837%
CC(C)c1onc(C(=O)NCc2ccccc2)c1[N+](=O)[O-] | inconclusive: 45.1%
C=CCNC(=S)Nc1c(C(=O)OC)[nH]c2cc(OC)ccc12 | inactive: -2.57%
CC(=O)c1cccc(NC(=O)C(C)OC(=O)/C=C/c2cccs2)c1 (stereo not given) | inconclusive: 38.1%
CCOC(=O)[C@H]1[C@H]2COc3ccc(Cl)cc3[C@@H]2N2C(=O)c3cc(C)ccc3NC(=O)[C@@]12C | inconclusive: 75.7%
Cc1ccc(-c2nn(-c3ccccc3)cc2C(=O)N2CCOCC2)cc1 | inconclusive: 38.9%
COc1ccc(CNC(=O)N2CCN(c3cccc(Cl)c3)CC2)cc1OC | inconclusive: 76.8%
S=C(Nc1ccc(Cl)c(Cl)c1)NC1CCCCC1 | inconclusive: 60.4%

Compound | activation
Cc1ccc(S(=O)(=O)c2cnc3cc(C)nn3c2N)cc1 | inconclusive: 65.8%
O=C1CSC(c2ccc(Cl)cc2)N1c1cccnc1 (stereo not given) | inactive: -1.52%
CCOc1ccccc1N(C(=O)c1snc(C(N)=O)c1N)C(C(=O)NC1CCCC1)c1cccs1 (stereo not given) | inconclusive: 50.8%
O=C(Nc1nnc(-c2ccccc2)o1)c1cc(Cl)sc1Cl | inactive: -10.9%
C=CCN1C(=O)c2ccc(C(=O)N(CC(C)C)c3c(N)n(CCCC)c(=O)[nH]c3=O)cc2C1=O | inactive: 2.91%
Cc1ccc(C(=O)Nc2cccnc2)cc1S(=O)(=O)N1CCCCCC1 | inconclusive: 66.9%
Cc1cccc(N2CCN(C(=O)c3ccc4c(c3)CCN4S(C)(=O)=O)CC2)c1C | inconclusive: 66.4%
COc1cccc(C(=O)N2CCN(C(=O)C3COc4ccccc4O3)CC2)c1 (stereo not given) | inactive: 12.5%
C[C@]12CC[C@@H]3c4ccc(O)cc4CC[C@H]3[C@@H]1CCC2=O | inconclusive: 32.4%
CCOC(=O)c1cc([N+](=O)[O-])sc1NC(=O)c1ccc(S(=O)(=O)N2CC3(C)CC2CC(C)(C)C3)cc1 (stereo not given) | inactive: 1.62%
Cc1cc(C)cc(NC(=O)c2ccc(CSc3nnc(C)s3)cc2)c1 | inconclusive: 61.2%
Cc1ccccc1C(=O)NC1CCN(CC(=O)Nc2ccccc2)CC1 | inactive: -4.01%
CCCCCOP(=O)(OCCCCC)C1(NS(=O)(=O)c2ccccc2)C=CC(=O)c2ccccc21 (stereo not given) | inconclusive: 47.8%
CC(=O)CC(=O)NC(=NC1CCCCC1)Nc1nc(C)cc(C)n1 | inactive: 7.71%
CSCCC(NS(=O)(=O)c1ccccc1F)C(=O)NCc1cccs1 (stereo not given) | inactive: 0.337%
CNC(=O)c1ccc(NC(=O)Cc2ccc(S(=O)(=O)N3CCOCC3)s2)cc1 | inactive: 1.98%
O=C(NCc1ccncc1)Nc1cc(Cl)ccc1Cl | inconclusive: 63%
Cc1cc(C)n(-c2nc(NCCCO)c3c4c(sc3n2)CCCC4)n1 | inactive: 26.9%
COc1ccc(NC(=O)c2ccc3ccccc3c2)cc1 | inconclusive: 55.6%
COC(=O)c1nn(-c2ccc(Cl)cc2)c(=O)cc1Sc1ccccn1 | inconclusive: 38%
CCCOc1cccc(C(=O)N/N=C/c2ccoc2)c1 | inconclusive: 47.7%
O=C(N=c1ccn(-c2nc3ccccc3nc2NS(=O)(=O)c2ccccc2)cc1)c1ccccc1Cl | inactive: -4.12%
CCc1nc(N2CCN(C(C)=O)CC2)c(C#N)c2c1COC(C)(C)C2 | inconclusive: 65%

Compound | activation
COc1ccc(C(=O)CC(=O)C(=O)Nc2ccc(OC)c(Cl)c2)cc1 | inactive: 2.52%
Cc1ccc(C(=O)c2cc3ccccc3o2)cc1 | inconclusive: 45.4%
CCCCNC(=O)c1cc2c(=O)n3cccc(C)c3nc2n(Cc2ccncc2)c1=N | inconclusive: 39.7%
CCSc1nc2ccccc2n1C(=O)/C=C\c1ccc(OC)c(OC)c1 | inactive: 0.805%
CCOC(=O)C1(CC2CC2)CCN(C(=O)c2cc(C)nc3ccc(CC)cc23)CC1 | inconclusive: 51.7%
O=C(Oc1ccccc1C(=O)Oc1ccccc1)c1cccnc1 | inconclusive: 43.3%
O=C(CCc1ccccc1)NC1C2CC3CC(C2)CC1C3 (stereo not given) | inconclusive: 44.2%
CCOc1ccccc1OCCCC(=O)Nc1ccc(OC)nc1 | inconclusive: 39.1%
Cc1ccnc(SCC(=O)N2CCN(C(c3ccccc3)c3ccccc3)CC2)n1 | inconclusive: 35.4%
Cc1cc(C)cc(NC(=O)C2CCN(S(=O)(=O)c3ccc4c(c3)NC(=O)C(C)S4)CC2)c1 (stereo not given) | inactive: -2.16%
CC(C)C(NC(=O)c1ccc(F)cc1)C(=O)NC1(C)CCS(=O)(=O)C1 (stereo not given) | inactive: -1.29%
Cc1ccc(N=C/C(C(=O)C(F)(F)F)=C(\O)c2ccco2)cc1Cl | inactive: 28.2%
CC(C)(C)OC(=O)N1CCC(NC(=O)c2[nH]cnc2C(=O)Nc2cccc(Cl)c2)CC1 | inactive: -0.652%
CC(C)C[C@@H](CSc1ccc(Br)cc1)N1CCN(CC(C)C)CCC1=O | inconclusive: 39.5%
COC(=O)C1=CNC=C(C(=O)OC)C1c1ccc(C(=O)OC)cc1 | inactive: 1.13%
CCOc1ccc(N2CC(NC(=O)c3ccc4ccccc4c3)CC2=O)cc1 (stereo not given) | inconclusive: 45.6%
Cc1cc(C(=O)NCCc2ccc(Cl)cc2)c(C)o1 | inconclusive: 42.6%
CCN1C(=O)c2cccc3c(NC(=O)c4ccc(S(=O)(=O)N5CCOCC5)cc4)ccc1c23 | inconclusive: 65.9%
CC1CCN(C2=NC(=O)/C(=C/c3cccc(O)c3)S2)CC1 | inconclusive: 79%
CCc1cc(C)cc(OCCNC(=O)c2cncc(Br)c2)c1 | inconclusive: 46.1%
CCCC[C@]12Cc3ccccc3C(O1)c1c(c3ccccc3oc1=O)O2 | inactive
Cc1onc(-c2c(F)cccc2Cl)c1C(=O)c1ccccc1O | inactive: -5.92%
O=C(ONC1=NCCCCC1)c1ccc(Cl)cc1 | inconclusive: 34.4%

Compound | activation
O=C(c1ccc(F)cc1)c1cc2ccccc2o1 | inconclusive: 38%
C=CCSc1nc2c(C(=O)OCC)nnn2c2ccccc12 | inconclusive: 32.3%
CC(C)OC(=O)/C(=C\C=C\c1ccccc1)NC(=O)c1ccccc1 | inconclusive: 52.9%
O=C(Nc1ccc(CSc2ccccc2)cc1)c1ccco1 | inconclusive: 59.5%
COc1ccc(-c2nc3c(c(=O)[nH]c(=O)n3Cc3ccccc3)n2CCO)cc1 | inactive: -0.949%
CSc1nsc(SCC(=O)N2CCc3ccccc32)n1 | inconclusive: 38.5%
CCCN1CCC(NC(=O)c2cccc(Oc3ccccc3)c2)CC1 | inactive: -1.6%
CC(NC(=S)Nc1ccc(S(=O)(=O)N2CCOCC2)cc1)C1CC2CCC1C2 (stereo not given) | inconclusive: 48.9%
CN1CCN(C2=NC(=O)/C(=C/c3ccccc3OS(=O)(=O)c3ccccc3)S2)CC1 | inconclusive: 79.7%
O=c1[nH]ncc(N2CCCCCC2)c1Cl | inactive: 0.417%
C=CCOc1ccc(CNn2cn[nH]c2=S)cc1OC | inactive: 0.404%
O=C(CSc1nc2ccccc2c(=O)n1NC(=O)Cc1ccccc1)NCCc1ccccc1 | inconclusive: 43.9%
CCc1sc(NC(=O)CN2CCOCC2)nc1-c1ccccc1 | inconclusive: 50.9%
COc1cc(NC(=O)c2cc(C3CC3)on2)c(OC)cc1Cl | inconclusive: 35%
Clc1ccccc1OCCN1CCC(Cc2ccccc2)CC1 | inactive: 0.638%
Cc1ccc(C)c(N2CCN(Cc3nnnn3C3CCCCC3)CC2)c1 | inconclusive: 42.6%
C/C(=N\NC(=O)c1cc2c(s1)CCC(C)C2)c1ccc[nH]1 (stereo not given) | inconclusive: 42.5%
O=C(Nc1ccc2c(c1)OCO2)c1ccc(Br)o1 | inconclusive: 62.1%
CCCCCCNc1nc(NCc2ccco2)nc(OCC)n1 | inactive: -11.1%
CCCCNC(=O)C1CC(c2ccc(C(F)(F)F)cc2)=NO1 (stereo not given) | inconclusive: 31.3%
O=C(Nc1nnc(SCc2ccccn2)s1)C1CC(=O)N(c2ccccc2)C1 (stereo not given) | inactive: 2.19%
